Results are given in words; binding and its absence hold for the method and conditions named. Binding seen in cells or lysates may run through a third protein. Here binding means that the protein was enriched with, or labelled near, the bait; the list need not be complete. Where a sequence is shown, tags or fusion partners need not be part of it.

Chains of the proteins cited; added tags and fusions are not shown. Residues count along the entry.
UniProt O95299, residues 36-355: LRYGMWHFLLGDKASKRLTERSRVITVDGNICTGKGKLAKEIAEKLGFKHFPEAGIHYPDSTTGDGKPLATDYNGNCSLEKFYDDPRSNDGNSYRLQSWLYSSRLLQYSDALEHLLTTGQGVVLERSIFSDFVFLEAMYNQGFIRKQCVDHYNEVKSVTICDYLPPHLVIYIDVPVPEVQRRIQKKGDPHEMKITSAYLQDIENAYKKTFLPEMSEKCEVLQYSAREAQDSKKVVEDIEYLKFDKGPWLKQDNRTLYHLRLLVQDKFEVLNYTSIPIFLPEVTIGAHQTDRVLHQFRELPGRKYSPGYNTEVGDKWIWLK

The values that follow come from PMC9065199.

The target of the assay is T1, Acylglycerol kinase (AGK), full-length, Flag-tagged (UniProt Q53H12).
T1 sequence: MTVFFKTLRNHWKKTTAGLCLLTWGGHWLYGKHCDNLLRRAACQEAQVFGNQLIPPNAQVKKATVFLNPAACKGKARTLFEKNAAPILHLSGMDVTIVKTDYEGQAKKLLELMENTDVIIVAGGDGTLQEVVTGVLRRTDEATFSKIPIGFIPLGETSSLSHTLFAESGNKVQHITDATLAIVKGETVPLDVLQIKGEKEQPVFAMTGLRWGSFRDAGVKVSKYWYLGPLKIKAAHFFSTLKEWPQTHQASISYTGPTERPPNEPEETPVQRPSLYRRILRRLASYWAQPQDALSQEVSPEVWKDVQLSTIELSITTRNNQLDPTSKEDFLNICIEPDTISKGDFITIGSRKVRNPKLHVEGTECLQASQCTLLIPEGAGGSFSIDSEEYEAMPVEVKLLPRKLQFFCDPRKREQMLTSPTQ
Kind of assay: affinity purification with mass spectrometry; HEK293T cells transfected with AGK-Flag or vector; Coomassie-stained gel, MS/MS of bands.

Regarding “NDUFA10, mitochondrial respiratory chain complex I subunit (endogenous, HEK293T) (from UniProt O95299 36-355)”, the binding result is “binds”.
